± gives the uncertainty stated by the source. Many entries were measured with a wide error.
Test: self-splicing fitness, log relative to wild type (ln ratio); higher = more splicing; Tetrahymena group I intron in knt gene, E. coli kanamycin selection, DiMSum; sequences stand for … in CUCUCU…GGAGGGAAAAGUUAUCAGGCAUGCACCUGGUAGCUAGUCUUUAAACCAAUAGAUUGCAUCGGUUUAAAAGGCAAGACCGUCAAAUUGCGGGAAAGGGGUCAACAGCCGUUCAGUACCAAGUCUCAGGGGAAACUUUGAGAUGGCCUUGCAAAGGGUAUGGUAAUAAGCUGACGGACAUGGUCCUAACCACGCAGCCAAGUCCUAAGUCAACAGAUCUUCUGUUGAUAUGGAUGCAGUUCACAGACUAAAUGUCGGUCGGGGAAGAUGUAUUCUUCUCAUAAGAUAUAGUCGGACCUCUCCUUAAUGGGAGCUAGCGGAUGAAGUGAUGCAACACUGGAGCCGCUGGGAACUAAUUUGUAUGCGAAAGUAUAUUGAUUAGUUUUGGAGUACUCGUGGUCG
Procedure, shortened: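 A randomised library covering all eight P1ex-region intron nucleotides was built with the intron in the knt kanamycin-resistance gene on pET-22b(+) and held in E. coli BL21(DE3). Cells were grown overnight at 37°C or 30°C on LB agar, with or without 25 μg/mL kanamycin, plus 100 μg/mL carbenicillin, 50 μM IPTG and 0.2% rhamnose, and pooled colonies were amplicon-sequenced on an Illumina HiSeq 2500. DiMSum fitness is the error-weighted combination of wild-type-normalised replicate fold changes, kanamycin versus none.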

Sequence | self-splicing fitness (ln) (30 °C) | self-splicing fitness (ln) (37 °C)
GGCUAGCAAUAUUACGAAGG | -4.62 ± 0.73 | –
UCUGAGCAAUAUUACGAGUC | – | -2.39 ± 0.62
UAGGAGCAAUAUUACGUAAU | – | -2.02 ± 0.68
UAGUAGCAAUAUUACGUAGG | – | -2.14 ± 0.77
GCACAGCAAUAUUACGGCUC | -0.268 ± 0.071 | 0.523 ± 0.076
CGGAAGCAAUAUUACGCUUA | -3.34 ± 0.74 | –
UUUGAGCAAUAUUACGGGGG | – | -3.99 ± 0.51
GGGGAGCAAUAUUACGGGCC | -2.65 ± 0.62 | –
UGUUAGCAAUAUUACGUUUG | -2.14 ± 0.16 | -1.26 ± 0.18
GAUAAGCAAUAUUACGGGGA | -2.76 ± 0.55 | –
UUGAAGCAAUAUUACGCGCC | -0.966 ± 0.63 | –
UCCGAGCAAUAUUACGCAUC | – | -2.64 ± 0.76
UUUUAGCAAUAUUACGCAGU | -3.94 ± 0.59 | -1.98 ± 0.52
CGUAAGCAAUAUUACGCUAC | -3.48 ± 0.79 | –
GCAAAGCAAUAUUACGACGU | 0.0721 ± 0.072 | 0.116 ± 0.096
CAAAAGCAAUAUUACGGAAU | -3.21 ± 0.21 | -2.56 ± 0.17
UGUUAGCAAUAUUACGGGAC | -3.34 ± 1.1 | –
UCGGAGCAAUAUUACGUAGA | -1.4 ± 1.2 | -1.38 ± 0.67
GUGGAGCAAUAUUACGGAUA | -2.95 ± 1.1 | –
UGGGAGCAAUAUUACGGUAU | -3.3 ± 0.61 | -3.16 ± 1
ACGGAGCAAUAUUACGUGGC | – | -4.12 ± 0.59
AAGGAGCAAUAUUACGCCUC | – | -0.595 ± 1
UAACAGCAAUAUUACGCGUG | -0.718 ± 0.041 | 0.173 ± 0.055
CCGGAGCAAUAUUACGAUGC | – | -3.64 ± 1

Quoted from the listing.
self-splicing fitness (ln) (37 °C), UAGUAGCAAUAUUACGUAGG reads -2.14 ± 0.77
self-splicing fitness (ln) (37 °C), UAGGAGCAAUAUUACGUAAU reads -2.02 ± 0.68
self-splicing fitness (ln) (37 °C), CCGGAGCAAUAUUACGAUGC reads -3.64 ± 1

Further results follow:

Sequence | self-splicing fitness (ln) (30 °C) | self-splicing fitness (ln) (37 °C)
AGGGAGCAAUAUUACGACGC | -3.52 ± 0.55 | –
AGAAAGCAAUAUUACGGUCU | -1.11 ± 0.082 | -0.58 ± 0.09
GUUAAGCAAUAUUACGCAAC | -1.93 ± 0.54 | –
GGGUAGCAAUAUUACGAGAA | -0.868 ± 1.4 | -1.94 ± 0.77
AGAGAGCAAUAUUACGACAC | -4.19 ± 0.6 | –
UCCAAGCAAUAUUACGGGGA | -2.58 ± 0.15 | -1.27 ± 0.1
UCGGAGCAAUAUUACGUACC | – | -2.35 ± 0.77
UGCUAGCAAUAUUACGCUGC | -2.25 ± 1.1 | -1.56 ± 0.7
UACUAGCAAUAUUACGCCGC | -3.39 ± 0.54 | -2.13 ± 0.65
ACGUAGCAAUAUUACGCUAC | -0.689 ± 0.64 | -1.79 ± 1.2
UCAGAGCAAUAUUACGGGAA | -4.62 ± 1 | –
AUUGAGCAAUAUUACGCGUA | -3.63 ± 0.54 | –
CGGUAGCAAUAUUACGAGAC | -4.06 ± 0.52 | -2.54 ± 0.75
UACUAGCAAUAUUACGAAAU | -4.31 ± 0.51 | –
CUGGAGCAAUAUUACGUCGG | – | -2.49 ± 0.62
CGCUAGCAAUAUUACGCUAU | -4 ± 0.61 | –
CUGGAGCAAUAUUACGCCGA | – | -2.8 ± 1
UAAUAGCAAUAUUACGAUGC | – | -2.33 ± 0.57
UCUGAGCAAUAUUACGCGCC | -1.75 ± 0.58 | -1.64 ± 0.58
CGAAAGCAAUAUUACGAAAU | -2.32 ± 0.19 | -2.96 ± 0.24
GCAUAGCAAUAUUACGUCUU | -1.46 ± 0.1 | -0.342 ± 0.11
UGGAAGCAAUAUUACGGGCC | -4.05 ± 1 | –
UAGGAGCAAUAUUACGAGCU | -3.45 ± 0.53 | –
GCCAAGCAAUAUUACGCGGU | -3.73 ± 0.2 | -3.25 ± 0.27

Fetched one by one from the entries so far (two):
Sequence | self-splicing fitness (ln) (30 °C) | self-splicing fitness (ln) (37 °C)
UGGAAGCAAUAUUACGGGCC | -4.05 ± 1 | –
AGAGAGCAAUAUUACGACAC | -4.19 ± 0.6 | –

Next records follow:

Sequence | self-splicing fitness (ln) (30 °C) | self-splicing fitness (ln) (37 °C)
GUGAAGCAAUAUUACGGGCC | – | -2.82 ± 0.61
ACAGAGCAAUAUUACGAAUC | – | -0.645 ± 0.58
CCGGAGCAAUAUUACGGCCC | -1.54 ± 0.82 | –
CCCGAGCAAUAUUACGAGAC | -2.84 ± 0.75 | -3.17 ± 0.74
UGUAAGCAAUAUUACGAUUC | -3.16 ± 0.54 | –
UAAGAGCAAUAUUACGUUAU | – | -3.18 ± 0.6
CUUAAGCAAUAUUACGUCCC | -3.27 ± 1.1 | 0.321 ± 1.2
CUGGAGCAAUAUUACGACCU | -3.89 ± 0.74 | -2.2 ± 0.6
UCAGAGCAAUAUUACGUUUA | -3.02 ± 0.25 | -2.6 ± 0.23
UAUCAGCAAUAUUACGCGAU | -4.16 ± 0.51 | –
UGGGAGCAAUAUUACGAGAC | -2.57 ± 0.63 | -1.69 ± 0.82
GAGCAGCAAUAUUACGCUUC | -2.37 ± 0.28 | -3.7 ± 1
CCCGAGCAAUAUUACGCAGC | -2.98 ± 0.61 | –
GCGAAGCAAUAUUACGUCCC | 0.592 ± 0.6 | 1.39 ± 0.83
UGGCAGCAAUAUUACGCCGC | -3.5 ± 0.64 | -2.98 ± 1.1
UCUUAGCAAUAUUACGGCAC | -2.28 ± 0.58 | -1.45 ± 0.6
AUUGAGCAAUAUUACGAGCG | – | -2.76 ± 0.53
CACUAGCAAUAUUACGCUCC | -3.7 ± 0.61 | –
CGCCAGCAAUAUUACGGACC | -1.3 ± 0.15 | -0.361 ± 0.18
UUCCAGCAAUAUUACGGUAA | -0.236 ± 0.087 | -0.0663 ± 0.086
CUCUAGCAAUAUUACGUAAC | – | -3.93 ± 0.72
UGGGAGCAAUAUUACGUUAA | – | -2.07 ± 0.67
CAGCAGCAAUAUUACGAAAC | – | -4.03 ± 0.72
CAUCAGCAAUAUUACGACCC | -2.63 ± 0.56 | -0.684 ± 0.61

Sequence | self-splicing fitness (ln) (30 °C) | self-splicing fitness (ln) (37 °C)
CGGAAGCAAUAUUACGCUUC | – | -3.2 ± 0.52
GCUCAGCAAUAUUACGGUAC | -0.486 ± 0.13 | -0.709 ± 0.15
UCAUAGCAAUAUUACGAAUC | -4.93 ± 0.72 | –
AGUAAGCAAUAUUACGAGGC | – | -3.3 ± 1
CUGCAGCAAUAUUACGAACC | – | -1.98 ± 1.1
UUCGAGCAAUAUUACGUGCU | – | -3.76 ± 0.51
UCUGAGCAAUAUUACGAAAA | -2.44 ± 0.78 | –
UCUCAGCAAUAUUACGAGGC | -3.47 ± 1 | –
UCGGAGCAAUAUUACGUUUG | -2.71 ± 0.63 | -0.697 ± 0.6
UCGUAGCAAUAUUACGUACC | – | -0.468 ± 0.68
UAAGAGCAAUAUUACGCCAA | -1.61 ± 0.76 | -2.04 ± 0.65
AAACAGCAAUAUUACGUCCU | -0.281 ± 0.07 | 0.347 ± 0.094
UGGGAGCAAUAUUACGGAGU | – | -2.77 ± 0.61
CCAGAGCAAUAUUACGCCGG | -3.48 ± 0.6 | -3.04 ± 0.74
GAGUAGCAAUAUUACGCACG | – | -1.49 ± 0.53
UCUUAGCAAUAUUACGAGUC | -3.76 ± 1 | –
UACAAGCAAUAUUACGACAU | -1.474 ± 0.012 | -0.59 ± 0.032
CGAGAGCAAUAUUACGCUCA | -2.44 ± 0.78 | -0.527 ± 0.62
CUUGAGCAAUAUUACGUCCU | -4.37 ± 0.72 | -2.76 ± 0.53
CUUAAGCAAUAUUACGCUCU | -2.77 ± 0.13 | -2.81 ± 0.32
CGUUAGCAAUAUUACGCUAA | -3.12 ± 0.76 | –
CCCGAGCAAUAUUACGCUUG | -3.03 ± 0.77 | –
CCGAAGCAAUAUUACGCCCA | – | -1.02 ± 0.59
GGAGAGCAAUAUUACGGGCC | – | -2.56 ± 0.76

Sequence | self-splicing fitness (ln) (30 °C) | self-splicing fitness (ln) (37 °C)
CUGAAGCAAUAUUACGUUUA | – | -4 ± 0.59
CGAGAGCAAUAUUACGCAGG | -4.08 ± 0.52 | –
GUGGAGCAAUAUUACGUCGU | -1.65 ± 0.21 | -1.48 ± 0.26
AGGGAGCAAUAUUACGUGGC | -3.17 ± 1 | -1.6 ± 0.84
UGUAAGCAAUAUUACGCGGC | -3.9 ± 0.6 | –
UUCGAGCAAUAUUACGGCAC | – | -1.72 ± 0.7
ACGGAGCAAUAUUACGAAAC | -4.98 ± 1 | –
CGUAAGCAAUAUUACGAAAC | – | 0.038 ± 0.59
CGUUAGCAAUAUUACGCGAG | – | -3.38 ± 0.53
AAAUAGCAAUAUUACGCGGG | -3.02 ± 0.19 | -1.23 ± 0.12
UGGAAGCAAUAUUACGCUCC | -3.96 ± 0.73 | -3.45 ± 0.6
UUUUAGCAAUAUUACGUCAC | – | -2.65 ± 0.65
CUUCAGCAAUAUUACGCGCU | -4.41 ± 1 | –
CGUCAGCAAUAUUACGCCUU | -4.75 ± 0.59 | –
GUGUAGCAAUAUUACGCGCC | -0.455 ± 0.91 | -0.681 ± 1.4
UUUCAGCAAUAUUACGCACC | -1.56 ± 1.2 | -0.234 ± 1.4
CGCGAGCAAUAUUACGGACG | -3.45 ± 0.76 | –
CAUUAGCAAUAUUACGCGUG | -3.16 ± 0.15 | -2.89 ± 0.24
UGGGAGCAAUAUUACGGUAC | -2.94 ± 0.69 | -3 ± 1
UACCAGCAAUAUUACGUAGU | -2.96 ± 0.099 | -1.65 ± 0.1
ACGCAGCAAUAUUACGCCAC | -5.11 ± 0.71 | –
UCGCAGCAAUAUUACGAGCC | -2.98 ± 0.5 | -2.47 ± 0.76

A different layout for part of the listing above:
Sequence	self-splicing fitness (ln) (30 °C)	self-splicing fitness (ln) (37 °C)
ACGGAGCAAUAUUACGAAAC	-4.98 ± 1	–
CGUAAGCAAUAUUACGAAAC	–	0.038 ± 0.59

Reference: the supplement of paper PMC7877785
